This is one part of the list. Shown are side measurements of this screen, not its main read-out; they come without a call. Most of these compounds were active or inconclusive in the main read-out, so they are no random draw. The note in brackets gives the kind of curve behind each potency; many fits are weak.

As a reminder, the AC50 is the concentration at which the activity in the assay is half-maximal.

The test is described as follows: IkB Signaling. The following applies: ABC-DLBCL IkBa-CBG/CBR dual luciferase ratio (green luciferase fused to IkBa over red control in OCI-Ly3 lymphoma cells), 4 h; measured here: control luc red channel unless noted. An outline of the steps: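 Luminescence ratio of IκBα-fused green versus native red beetle luciferase in OCI-Ly3 cells, 4 h post-doxycycline with compound; red signal alone, scaled from basal (0%) to zero light (-100%), flagged nonspecific or cytotoxic effects.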
`CCCCOc1ccc(C(=O)NCC(c2ccc(Cl)cc2)N2CCOCC2)cc1` (stereo unspecified): the AC50 is 31.6 µM [falling, single point]. As for `Cc1nc2cc(-c3ccc(Cl)cc3)nn2c(C)c1CCC(=O)N1CCN(c2ccccc2)CC1`, the figure is 0.251 µM [falling, full curve].

Regarding `CSc1nc2ccc(NS(=O)(=O)c3ccc(Cl)s3)cc2s1`, the AC50 is 25.1 µM [falling, partial curve]. For `CS(=O)(=O)c1ncc(Cl)c(C(=O)N2CCN(c3cccc(Cl)c3)CC2)n1`, the AC50 is 5.01 µM [falling, partial curve]. The result for `O=C(Nc1nc(-c2ccccc2)cs1)C1CCCN(S(=O)(=O)c2ccccc2)C1` (stereo unspecified) reads 2.51 µM [falling, full curve]; that for `CCc1ccc(-c2nc3c(c(SCc4ccccc4)n2)Cc2c(CO)cnc(C)c2O3)cc1`, 0.0398 µM [rising, full curve, poor fit]; that for `CC(C)Oc1ccc(CNC(=O)c2cc3cccc4c3n2CC(C)S4)cc1` (stereo unspecified), 12.6 µM [falling, partial curve]. Take `COc1ccc(Cl)cc1NC(=O)c1ccc(CN2C(=O)CCn3nc(C)cc32)cc1`: the AC50 was 25.1 µM [falling, partial curve]. With `COc1cc(Cl)c(C)cc1NC(=O)CNC(=O)Cn1ccc2ccccc2c1=O`, the half-maximal activity concentration (AC50) was 10 µM [falling, partial curve].

Regarding `COc1ccc(Nc2ncnc3c2cnn3-c2cc(Cl)ccc2C)cc1OC`, the AC50 is 39.8 µM [falling, single point]. Regarding `Cc1cccc(-c2nc(SCCCOc3cc(C)c(Cl)c(C)c3)n3[nH]c(=O)cc3n2)c1`, the concentration at half-maximal activity (AC50) was 39.8 µM [rising, single point]. As to `CC(=O)[C@@H]1CC[C@@H]2[C@@H]3C[C@H](C)C4=CC(=O)CC[C@@]4(C)[C@H]3[C@H](O)C[C@]21C`, the AC50 is 3.98 nM [rising, full curve, poor fit] [measured here: IkB-luc green channel]. Turning to `CNc1nc(SCc2ccccc2)nc(N2CCOCC2)n1`, the AC50 is 1.58 µM [rising, partial curve]. Consider `CCCc1oc2ccc(NS(=O)(=O)c3ccc(OCC)cc3)cc2c1C(=O)OCC`, for which the AC50 is 7.94 µM [rising, single point] [measured here: IkB-luc green channel]. As to `Cc1ccc(C(=O)OC2=C(C(=O)c3ccccc3)N(C)S(=O)(=O)c3ccccc32)cc1`, the AC50 is 39.8 µM [falling, single point]. `COc1ccccc1C(c1nnnn1CS(=O)(=O)c1ccc(C)cc1)N1CCSCC1` (stereo unspecified): the AC50 is 39.8 µM [falling, single point].

The values above are taken from PubChem BioAssay AID445 (National Center for Advancing Translational Sciences (NCATS), 2006).
